Among all 400,000 compounds or so, about 13,000 (3.2%) were called active. The inconclusive results got no clear call from the source; some entries with a clear call stand among them for comparison. The call rests on the fitted dose curve; in most records, active means well fitted cell-killing curve with a large enough effect; inconclusive means small, poorly fitted or top-dose-only effect, or effect the other way; inactive means flat fitted curve, though single readings scatter. Potencies of inconclusive entries are doubtful fits and often do not repeat.
Assay: qHTS assay for MDR1-selective chemotherapeutics: Primary screen using the drug-selected MDR subline cells KB-V1; further: nearly all actives have a fitted effect of over 60% in size
Conditions: KB-V1 MDR cells viability, CellTiter-Glo, 72 h; activity change, negative = cytotoxicity: at 46.1 µM (top of the series)
Method in brief: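 Compound-treated KB-V1 multidrug-resistant cells, 72 h, 37 degrees C; viability by CellTiter-Glo. Fitted qHTS curves give the values.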
On the % scale 0 is the no-effect control and ±100 the full control effect; potency means the concentration at half of the fitted maximal effect.

Compound | Potency | activity change, negative = cytotoxicity
Cc1cc(S(=O)(=O)Nc2ccc3cn[nH]c3c2)c(C)cc1Cl | inconclusive: 20.6 µM [cytotoxic, single point] | 
Clc1ccc(-c2cc(C3CCNCC3)[nH]n2)c(Cl)c1 | inconclusive: 29.1 µM [cytotoxic, single point] | 
O=[N+]([O-])c1ccc(O)c(C(C#Cc2ccccc2)N2CCOCC2)c1 (stereo unspecified) |  | inactive: 12.8%
CCOc1ccc(OCC)c(S(=O)(=O)N2CCCCC2C)c1 (stereo unspecified) |  | inactive: -29%
Cc1ccc(SCc2nc(-c3ccccc3)no2)cc1 |  | inactive: -24.4%
CCNC(=O)C(=O)c1c(-c2ccccc2)[nH]c2ccccc12 | inconclusive: 29.1 µM [rising, single point] | 
COc1ccc(NC(=O)c2oc3ccccc3c2NC(=O)c2cc3ccccc3o2)cc1 | inconclusive: 0.291 µM [cytotoxic, full curve, poor fit] | 
OC[C@@H]1CN(Cc2ccc(F)cc2)C[C@H](n2cnc3c(N4CCCC4)ncnc32)O1 | inconclusive: 20.6 µM [cytotoxic, single point] | 
COC(=O)C1=C(N)N(c2ccccc2F)C2=C(C(=O)CC(C)(C)C2)C1c1ccc(OC)c(OC)c1 (stereo unspecified) | active: 4.61 µM | 
Cc1cc(C)nc(-n2nc(C)cc2NC(=O)C(C)C)n1 |  | inactive: -10.2%
Cc1cc(-c2n[nH]c(=S)n2Cc2ccccc2)cs1 |  | inactive: -0.278%
CC1CCCC(NC(=O)CCCCCn2c(=S)[nH]c3ccsc3c2=O)C1C (stereo unspecified) |  | inactive: 6.93%
S=C(c1ccc2c(c1)OCO2)N1CCN(c2cccc(Cl)c2)CC1 | inconclusive: 7.31 µM [cytotoxic, partial curve] | 
CN(c1ccc(F)cc1)S(=O)(=O)c1ccc(Cl)c(C(=O)NCC2CCCO2)c1 (stereo unspecified) | inconclusive: 9.2 µM [cytotoxic, partial curve, poor fit] | 
CCOc1cc(/C=C/c2cc(C(=O)O)c3ccccc3n2)ccc1OC | inconclusive: 18.4 µM [cytotoxic, partial curve, poor fit] | 
O=S(=O)(NC1CCCCC1Nc1ccc(Cl)cc1)c1ccccc1 (stereo unspecified) | inconclusive: 29.1 µM [cytotoxic, single point] | 
Cc1cc(OCC(=O)OCC(=O)Nc2cc(S(=O)(=O)N3CCOCC3)ccc2Cl)ccc1Cl |  | inactive: 3.72%
CCC1OC(C2CC2)CC2=C1C(=O)OC(C)(C)O2 (stereo unspecified) | inconclusive: 3.66 µM [rising, full curve, poor fit] | 
Cc1ccccc1NC(=O)c1cccc(N2C(=O)C3C4CC(C(Br)C4Br)C3C2=O)c1 (stereo unspecified) |  | inactive: 23.7%
COc1ccc(-c2cc(C(=O)Nc3cccnc3)c3ccccc3n2)cc1OC | active: 9.2 µM | 
CCOC(=O)CCCCCC(=O)Nc1ccc2c(c1)C(=O)N([C@@H](C)CO)C[C@H](C)[C@H](CN(C)C(=O)Nc1ccc(F)cc1)OCCCC[C@H](C)O2 | inconclusive: 16.4 µM [rising, single point] | 

Looked up one by one from the list above:
Compound | Potency | activity change, negative = cytotoxicity
CCC1OC(C2CC2)CC2=C1C(=O)OC(C)(C)O2 (stereo unspecified) | inconclusive: 3.66 µM [rising, full curve, poor fit] | 
COc1ccc(-c2cc(C(=O)Nc3cccnc3)c3ccccc3n2)cc1OC | active: 9.2 µM | 

Reference: PubChem BioAssay AID1347076 (National Center for Advancing Translational Sciences (NCATS), 2019)
